We go through one molecule from patent US20210139559A1.

The target in experiment [1] is PDGF-AA (UniProt P04085). Put plainly: native PAGE electromobility gel shift (FIG. 5). (In general: In EMSA bound probe runs differently from free probe, usually more slowly.)
For experiment [2], the target named is PDGF-AA (UniProt P04085). Put plainly: native PAGE electromobility gel shift, equimolar 25 pmol; alone or together with VEGF-A165.

No constants are given. Whether binding was seen depends on the method and setting. Some results given as binding are weak or reduced against the parent protein; the word gives no strength. Where a sequence is shown, tags or fusion partners need not be part of it.

B1: PDGFRαD123-PAS(200)-VEGFR1D2/R2D3 fusion protein (receptor)
chain: QLSLPSILPNENEKVVQLNSSFSLRCFGESEVSWQYPMSEEESSDVEIRNEENNSGLFVTVLEVSSASAAHTGLYTCYYNHTQTEENELEGRHIYIYVPDPDVAFVPLGMTDYLVIVEDDDSAIIPCRTTDPETPVTLHNSEGVVPASYDSRQGFNGTFTVGPYICEATVKGKKFQTIPFNVYALKATSELDLEMEALKTVYKSGETIVVTCAVFNNEVVDLQWTYPGEVKGKGITMLEEIKVPSIKLVYTLTVPEATVKDSGDYECAARQATREVKEMKKVTISVHEKGASPAAPAPASPAAPAPSAPAASPAAPAPASPAAPAPSAPAASPAAPAPASPAAPAPSAPAASPAAPAPASPAAPAPSAPAASPAAPAPASPAAPAPSAPAASPAAPAPASPAAPAPSAPAASPAAPAPASPAAPAPSAPAASPAAPAPASPAAPAPSAPAASPAAPAPASPAAPAPSAPAASPAAPAPASPAAPAPSAPAASDTGRPFVEMYSEIPEIIHMTEGRELVIPCRVTSPNITVTLKKFPLDTLIPDGKRIIWDSRKGFIISNATYKEIGLLTCEATVNGHLYKTNYLTHRQTNTIIDVVLSPSHGIELSVGEKLVLNCTARTELNVGIDFNWEYPSSKHQHKKLVNRDLKTQSGSEMKKFLSTLTIDGVTRSDQGLYTCAASSGLMTKKNSTFVRVHEKHHHHHHA
modifications: glycosylated (as purified from MEXi-293E medium)
Take B1: the binding result in the experiment with PDGF-AA [1] and with PDGF-AA [2] was “binds” in each case.
